Measurements taken from PubChem BioAssay AID1487 (National Center for Advancing Translational Sciences (NCATS), 2009).
The list shows a part of the results. Further columns of the screen follow, without active or inactive calls. Compounds called inactive in the main read-out are mostly missing here. Potencies come from curve fits of mixed quality, noted in brackets.

Assay: qHTS Assay for Modulators of Lamin A Splicing
Conditions: HeLa LMNA splicing GFP/RFP minigene ratio, 48 h
Procedure, shortened: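 S3 HeLa stable clones carrying a lamin A-EGFP splicing minigene plus DsRed2 were seeded at 600 cells/well in Opti-MEM with 2% FBS, pin-dosed and incubated 48 h at 37°C. Acumen cytometry (488 nm) gave the GFP/RFP total-intensity ratio.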

[1] = measured here: GFP splicing reporter channel
[2] = measured here: RFP viability control channel

SMILES	AC50 [1]	AC50 [2]
Brc1ccc(CSc2ccc3nnc(-c4cccnc4)n3n2)cc1	25.1 µM [falling, partial curve]	
CCOC(=O)c1ccccc1NC(=O)CSc1nc2ccccc2o1		12.6 µM [rising, single point]
COc1ccc(OC)c(NC(=O)c2c(NCc3ccc(OC)c(OC)c3)sc3c2CCC(C)C3)c1 (stereo unspecified)		35.5 µM [falling, single point]
C[n+]1ccc(/C=C/c2c[nH]c3ccccc23)cc1		12.6 µM [rising, single point]
CN1CCN(C2(CNC(=O)c3ccc([N+](=O)[O-])cc3)CCCCC2)CC1		35.5 µM [rising, single point]
O=C(O)CNC(=O)C12CC3CC(CC(Cl)(C3)C1)C2	11.2 µM [falling, partial curve, poor fit]	
N#CC(C#N)=C1C=C2C=C(N3CCCCCC3)CCC2CC1 (stereo unspecified)	0.447 µM [falling, full curve]	0.447 µM [falling, full curve]
NS(=O)(=O)c1ccc(NC(=O)COC(=O)COc2ccc(Cl)cc2)cc1	1.58 µM [rising, partial curve, poor fit]	
COc1ccc(-n2c(C)nc3c(cnn3-c3ccccc3)c2=O)cc1		11.2 µM [rising, partial curve]
Cc1ccc(OCC(=O)Nc2ccc(S(=O)(=O)N3CCOCC3)cc2)c([N+](=O)[O-])n1		0.158 µM [falling, full curve, poor fit]
Cc1cccc(Cn2cc(S(=O)(=O)c3ccccc3)c(=O)c3cc(F)c(N4CCOCC4)cc32)c1	35.5 µM [falling, single point]	35.5 µM [falling, single point]
Cc1cccc(NC(=O)CSc2cc(C(=O)c3nccn3C)c3ccccc3n2)c1		0.158 µM [rising, full curve, poor fit]
CCCc1nc2ccccc2n1CCc1ccccc1		17.8 µM [rising, single point]
CC1CC(Nc2ccccc2)c2ccccc2N1C(=O)c1cccnc1 (stereo unspecified)		2 µM [rising, full curve, poor fit]
CC(Oc1ccc(Br)cc1)C(=O)Nc1ccncc1 (stereo unspecified)		14.1 µM [rising, partial curve, poor fit]
O=C(OCCOCCO)c1ccccc1Nc1cccc(C(F)(F)F)c1	0.0562 µM [falling, full curve]	0.0501 µM [falling, full curve]
CCOC(=O)c1oc2ccc(S(=O)(=O)n3nc(-c4ccc(OC)cc4)cc3N)cc2c1C		10 µM [rising, partial curve]
CN(C)c1ccc(CNC(=O)Cc2ccc(NC(=O)N3CCCCc4ccccc43)cc2)cc1	0.355 µM [falling, full curve, poor fit]	
CCSc1ccccc1C(=O)N1CCN(c2ccc([N+](=O)[O-])cc2)CC1		0.00355 µM [falling, full curve, poor fit]
CC[n+]1c(/C=C/N(C)c2ccccc2)oc2ccc(F)cc21	10 µM [rising, partial curve]	12.6 µM [rising, partial curve]

SMILES	AC50 [1]	AC50 [2]
COc1cc2cc(CN(CCc3cccc(C)c3)C(=S)NCCCN3CCOCC3)c(=O)[nH]c2cc1OC	31.6 µM [falling, single point]	
Cc1sc2nc(SCC(=O)NCCOCCO)nc(N)c2c1C		1.26 µM [falling, full curve]
Cc1nc2ccc(NS(=O)(=O)c3c(C)c(C)cc(C)c3C)cc2s1	3.98 µM [rising, full curve]	3.16 µM [rising, full curve]
CC(C)C(c1nnnn1Cc1ccccc1)N(Cc1ccco1)Cc1cccs1 (stereo unspecified)	11.2 µM [rising, partial curve]	15.8 µM [rising, single point]
Cc1ccc(S(=O)(=O)/C(C#N)=C/c2ccccc2OCc2ccccc2)cc1	35.5 µM [rising, single point]	35.5 µM [rising, single point]
O=C(CSc1nnc(CN2CCOCC2)n1-c1ccc(Cl)cc1)Nc1cc(Cl)ccc1O	10 µM [rising, single point]	17.8 µM [rising, single point]
COc1ccc(-c2nc3ccccc3o2)cc1NC(=O)COc1ccc(C)c(C)c1	35.5 µM [falling, single point]	35.5 µM [falling, single point]
CCc1ccc(-c2ccc(SCc3ccccn3)nn2)cc1	0.0251 µM [rising, full curve, poor fit]	
COc1ccc(Br)cc1CNC(=O)c1cc(=O)[nH]c2ccc(S(=O)(=O)N3CCCCC3C)cc12 (stereo unspecified)	28.2 µM [falling, single point]	
Cc1cccc(Nc2nc3c(s2)CCCC3)c1		14.1 µM [rising, partial curve]
Cc1cc(NC2CCCCC2)nc(-c2ccccc2O)n1	35.5 µM [rising, single point]	35.5 µM [rising, single point]
COc1ccc2nc(NC(=O)CSc3ccccc3)sc2c1	39.8 µM [rising, partial curve, poor fit]	
COc1ccc(NC(=O)c2c(NCc3cccc(F)c3)sc3c2CCC3)c(OC)c1		22.4 µM [falling, single point]
O=C(c1ccccc1)c1c[nH]c2cc3c(cc2c1=O)OCCO3		15.8 µM [rising, single point]
CCc1ccc(OCc2ccc(C(=O)NCc3ccccn3)o2)cc1		14.1 µM [rising, single point]
CC(=O)N1CCc2[nH]c3ccccc3c2C1		14.1 µM [falling, partial curve, poor fit]
Cc1noc(C)c1CSc1nnc2scc(-c3ccc(Cl)cc3)n12	12.6 µM [rising, partial curve, poor fit]	11.2 µM [rising, partial curve, poor fit]
COc1ccc(-c2nsc(SCC(=O)NCC3CCCO3)n2)cc1 (stereo unspecified)		0.316 µM [falling, full curve]
CCCc1[nH]nc2c1C(c1ccoc1)C(C#N)=C(N)O2 (stereo unspecified)	20 µM [rising, single point]	12.6 µM [rising, single point]
C=CCN1N=C(c2ccc(NC(=O)c3ccccc3)cc2)CSC1=O		1.78 µM [falling, full curve, poor fit]

Sorted by molecular weight (high to low): 16 of the compounds above
SMILES	AC50 [1]	AC50 [2]
O=C(CSc1nnc(CN2CCOCC2)n1-c1ccc(Cl)cc1)Nc1cc(Cl)ccc1O	10 µM [rising, single point]	17.8 µM [rising, single point]
COc1ccc(NC(=O)c2c(NCc3cccc(F)c3)sc3c2CCC3)c(OC)c1		22.4 µM [falling, single point]
CC(C)C(c1nnnn1Cc1ccccc1)N(Cc1ccco1)Cc1cccs1 (stereo unspecified)	11.2 µM [rising, partial curve]	15.8 µM [rising, single point]
Cc1ccc(S(=O)(=O)/C(C#N)=C/c2ccccc2OCc2ccccc2)cc1	35.5 µM [rising, single point]	35.5 µM [rising, single point]
Cc1noc(C)c1CSc1nnc2scc(-c3ccc(Cl)cc3)n12	12.6 µM [rising, partial curve, poor fit]	11.2 µM [rising, partial curve, poor fit]
COc1ccc(-c2nsc(SCC(=O)NCC3CCCO3)n2)cc1 (stereo unspecified)		0.316 µM [falling, full curve]
Cc1nc2ccc(NS(=O)(=O)c3c(C)c(C)cc(C)c3C)cc2s1	3.98 µM [rising, full curve]	3.16 µM [rising, full curve]
Cc1sc2nc(SCC(=O)NCCOCCO)nc(N)c2c1C		1.26 µM [falling, full curve]
C=CCN1N=C(c2ccc(NC(=O)c3ccccc3)cc2)CSC1=O		1.78 µM [falling, full curve, poor fit]
CCc1ccc(OCc2ccc(C(=O)NCc3ccccn3)o2)cc1		14.1 µM [rising, single point]
COc1ccc2nc(NC(=O)CSc3ccccc3)sc2c1	39.8 µM [rising, partial curve, poor fit]	
CCc1ccc(-c2ccc(SCc3ccccn3)nn2)cc1	0.0251 µM [rising, full curve, poor fit]	
Cc1cc(NC2CCCCC2)nc(-c2ccccc2O)n1	35.5 µM [rising, single point]	35.5 µM [rising, single point]
CCCc1[nH]nc2c1C(c1ccoc1)C(C#N)=C(N)O2 (stereo unspecified)	20 µM [rising, single point]	12.6 µM [rising, single point]
Cc1cccc(Nc2nc3c(s2)CCCC3)c1		14.1 µM [rising, partial curve]
CC(=O)N1CCc2[nH]c3ccccc3c2C1		14.1 µM [falling, partial curve, poor fit]

Continued:

SMILES	AC50 [1]	AC50 [2]
CC(=O)Nc1ccc(SCC(=O)c2cc(C)n(-c3ccccc3F)c2C)cc1	7.94 µM [rising, partial curve, poor fit]	11.2 µM [rising, partial curve]
CCOC(=O)C1CN(C(C)(C)C)C(=O)C1=O (stereo unspecified)	0.251 µM [falling, full curve, poor fit]	
O=C(Nc1nc(-c2ccccn2)cs1)c1ncc(Cl)c(Cl)c1Cl	25.1 µM [falling, single point]	35.5 µM [falling, partial curve]
CC(C)c1ccc(NC(=O)CN(Cc2ccccc2)S(C)(=O)=O)cc1		0.501 µM [rising, partial curve]
Cc1sc(-n2c(C)cc(/C=N/n3cnnc3)c2C)c(C#N)c1C	35.5 µM [rising, single point]	17.8 µM [rising, single point]
COc1ccc(-c2nc(NC(C)=O)sc2-c2ccc(OC)cc2)cc1		1.26 µM [falling, single point]
COc1ccc(O)c(/C=N\NC(=O)CCn2nnc3ccccc32)c1		31.6 µM [rising, single point]
CCCn1c(CN(Cc2ccccc2)Cc2ccccc2)nc2c1c(=O)n(C)c(=O)n2C	35.5 µM [rising, single point]	35.5 µM [rising, single point]
CSc1c(SCc2ccccc2)cnn(-c2ccccc2)c1=O		12.6 µM [rising, single point]
Cc1ccc(-c2cc(C(F)F)n3ncc(C(=O)N4CCc5ccccc54)c3n2)cc1	0.0447 µM [falling, full curve, poor fit]	
O=C1NC(NS(=O)(=O)c2ccccc2)(C(F)(F)F)C(=O)N1Cc1cccnc1 (stereo unspecified)		0.562 µM [falling, single point]
Cc1cc2cc(CNC(=O)c3cccc([N+](=O)[O-])c3)ccc2n1C	35.5 µM [rising, single point]	28.2 µM [rising, single point]
CCOC(=O)c1sc2nc(NC(=O)C(C)(C)C)sc2c1C		35.5 µM [rising, single point]
COc1ccc(O)c(C2=Nc3ccccc3N=C(c3cccs3)C2)c1		35.5 µM [rising, single point]
CCOC(=O)c1ccc(N2C(=O)C(O)=C(C(C)=O)C2c2ccccc2)cc1 (stereo unspecified)		35.5 µM [rising, single point]
CCN(CC)S(=O)(=O)c1cccc(-c2nnc(SCCCC(=O)c3ccccc3)o2)c1	1.12 µM [rising, full curve, poor fit]	12.6 µM [rising, partial curve]
CCN1CCCC1CNC(=O)c1ccc(Sc2ccc(F)cc2)c([N+](=O)[O-])c1 (stereo unspecified)	0.0251 µM [falling, full curve, poor fit]	
CNC(=O)c1ccc(-c2ccc(Cl)c(Cl)c2)s1		14.1 µM [falling, partial curve, poor fit]
